Assay [1] has as its target T1, His6-Cdh1 (recombinant, full-length, on beads) (S. cerevisiae) (UniProt P53197).
T1 sequence: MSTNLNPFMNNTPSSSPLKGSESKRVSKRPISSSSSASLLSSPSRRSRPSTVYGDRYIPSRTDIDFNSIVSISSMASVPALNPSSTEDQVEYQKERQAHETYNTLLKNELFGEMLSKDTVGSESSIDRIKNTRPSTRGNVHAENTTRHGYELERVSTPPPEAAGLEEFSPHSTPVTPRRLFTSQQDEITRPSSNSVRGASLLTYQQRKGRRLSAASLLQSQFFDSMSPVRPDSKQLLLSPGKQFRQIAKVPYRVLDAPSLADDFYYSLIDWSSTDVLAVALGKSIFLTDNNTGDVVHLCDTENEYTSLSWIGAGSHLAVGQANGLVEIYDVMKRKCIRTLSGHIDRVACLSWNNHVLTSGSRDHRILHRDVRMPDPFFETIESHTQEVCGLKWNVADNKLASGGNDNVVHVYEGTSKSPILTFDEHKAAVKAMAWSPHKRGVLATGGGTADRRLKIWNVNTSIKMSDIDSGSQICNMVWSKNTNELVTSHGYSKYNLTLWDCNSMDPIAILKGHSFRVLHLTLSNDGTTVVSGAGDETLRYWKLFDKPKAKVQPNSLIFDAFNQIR
Description: pull-down.

Chains of the proteins cited; added tags and fusions are not shown.
UniProt P34244, whole entry: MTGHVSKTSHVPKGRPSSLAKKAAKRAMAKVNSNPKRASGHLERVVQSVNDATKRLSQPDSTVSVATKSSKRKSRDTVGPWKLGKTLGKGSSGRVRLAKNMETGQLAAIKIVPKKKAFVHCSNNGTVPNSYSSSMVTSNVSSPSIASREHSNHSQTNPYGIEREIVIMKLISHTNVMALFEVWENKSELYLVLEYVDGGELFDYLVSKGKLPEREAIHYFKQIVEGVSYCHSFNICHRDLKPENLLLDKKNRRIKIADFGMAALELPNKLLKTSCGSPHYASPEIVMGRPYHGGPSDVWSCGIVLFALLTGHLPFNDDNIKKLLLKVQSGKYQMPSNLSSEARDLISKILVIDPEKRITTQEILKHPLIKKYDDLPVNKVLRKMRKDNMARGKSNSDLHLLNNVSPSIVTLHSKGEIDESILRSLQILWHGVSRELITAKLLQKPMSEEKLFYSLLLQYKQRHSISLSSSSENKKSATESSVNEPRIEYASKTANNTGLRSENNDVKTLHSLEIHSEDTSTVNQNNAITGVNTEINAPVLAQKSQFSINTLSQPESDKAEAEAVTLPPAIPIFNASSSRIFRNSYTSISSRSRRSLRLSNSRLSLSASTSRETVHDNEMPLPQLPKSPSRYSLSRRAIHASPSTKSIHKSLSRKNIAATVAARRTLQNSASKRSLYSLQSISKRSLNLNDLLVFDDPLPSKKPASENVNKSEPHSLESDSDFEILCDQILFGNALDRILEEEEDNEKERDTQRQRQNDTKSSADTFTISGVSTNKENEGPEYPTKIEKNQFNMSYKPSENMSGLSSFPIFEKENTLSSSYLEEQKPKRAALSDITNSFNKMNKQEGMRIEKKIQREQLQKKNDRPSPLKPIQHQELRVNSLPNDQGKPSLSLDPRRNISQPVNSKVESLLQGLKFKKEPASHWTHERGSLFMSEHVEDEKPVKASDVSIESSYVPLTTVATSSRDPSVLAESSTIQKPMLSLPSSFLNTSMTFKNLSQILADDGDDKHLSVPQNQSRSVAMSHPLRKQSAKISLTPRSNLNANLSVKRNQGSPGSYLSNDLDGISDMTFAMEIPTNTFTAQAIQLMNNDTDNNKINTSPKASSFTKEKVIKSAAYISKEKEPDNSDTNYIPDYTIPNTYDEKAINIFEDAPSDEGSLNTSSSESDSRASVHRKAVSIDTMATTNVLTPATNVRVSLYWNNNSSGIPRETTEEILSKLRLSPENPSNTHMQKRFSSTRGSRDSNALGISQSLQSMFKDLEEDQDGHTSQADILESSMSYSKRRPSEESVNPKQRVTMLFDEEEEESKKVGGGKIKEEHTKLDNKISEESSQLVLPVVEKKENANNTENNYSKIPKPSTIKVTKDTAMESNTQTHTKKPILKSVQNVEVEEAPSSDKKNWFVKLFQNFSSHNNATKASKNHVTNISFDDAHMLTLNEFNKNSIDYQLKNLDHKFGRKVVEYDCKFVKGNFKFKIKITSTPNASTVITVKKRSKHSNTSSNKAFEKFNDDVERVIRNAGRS

Assay [2] concerns the target T1, His6-Cdh1 (recombinant, full-length, on beads) (S. cerevisiae). Description: pull-down. The source holds these as a separate data set.
Assay [3] shares this target. Description: pull-down. This is another data set of the same source.
In assay [4] the target is T2, GST-Cdh1 (wild-type, full-length) (S. cerevisiae) (UniProt P53197).
T2 sequence: T1 sequence
In words: pull-down.

The target of assay [5] is Cdh1 isolated from yeast extracts (S. cerevisiae) (UniProt P53197). In words: co-IP.

Where two headings read alike, the source gives them in different places. No constants are given. Whether binding was seen depends on the method and setting. For some of these results: In cells and extracts the contact can be indirect. Some entries that bind do so weakly or less than the wild type. For some of these results: Where a sequence is shown, tags or fusion partners need not be part of it.

As to “MBP-Hsl1 (recombinant) (from UniProt P34244 1-1518)”, the binding result in assay [1] was “binds”.

B1: HA-Cdh1 fragment 1-300 aa (domain or fragment, UniProt P53197 1-300)
chain: MSTNLNPFMNNTPSSSPLKGSESKRVSKRPISSSSSASLLSSPSRRSRPSTVYGDRYIPSRTDIDFNSIVSISSMASVPALNPSSTEDQVEYQKERQAHETYNTLLKNELFGEMLSKDTVGSESSIDRIKNTRPSTRGNVHAENTTRHGYELERVSTPPPEAAGLEEFSPHSTPVTPRRLFTSQQDEITRPSSNSVRGASLLTYQQRKGRRLSAASLLQSQFFDSMSPVRPDSKQLLLSPGKQFRQIAKVPYRVLDAPSLADDFYYSLIDWSSTDVLAVALGKSIFLTDNNTGDVVHLCD
Regarding B1, the binding entry in assay [2] was “binds”.

B2: HA-Cdh1 fragment 1-280 aa (domain or fragment, UniProt P53197 1-280)
chain: MSTNLNPFMNNTPSSSPLKGSESKRVSKRPISSSSSASLLSSPSRRSRPSTVYGDRYIPSRTDIDFNSIVSISSMASVPALNPSSTEDQVEYQKERQAHETYNTLLKNELFGEMLSKDTVGSESSIDRIKNTRPSTRGNVHAENTTRHGYELERVSTPPPEAAGLEEFSPHSTPVTPRRLFTSQQDEITRPSSNSVRGASLLTYQQRKGRRLSAASLLQSQFFDSMSPVRPDSKQLLLSPGKQFRQIAKVPYRVLDAPSLADDFYYSLIDWSSTDVLAVA
As to B2, the binding result in assay [2] was “no binding”.

B3: HA-Cdh1 full-length (amino acids 1-566) (protein, UniProt P53197 1-566)
chain: T1 sequence
As to B3, the binding entry in assay [3], in assay [4] and in assay [2] was “binds” throughout.

B4: Cdh1 isolated from yeast extracts (protein, UniProt P53197 1-566)
chain: T1 sequence
On to B4, for which the binding entry in assay [5] is given as “binds”.

For the origin of these results see article doi:10.1101/358655.
